Source: PubChem BioAssay AID540276 (National Center for Advancing Translational Sciences (NCATS), 2011)
Hit rate of the full screen: of about 300,000 compounds, about 5,400 (1.8%) were called active. Inconclusive means that the source gave no clear call. Such entries were picked first, then a sample of the others. Calls follow the shape of the full dose curve; tested in HEK293 cells. A potency beside an inconclusive call is a rough fit, not a confirmed value.

Test: qHTS for inhibitors of binding or entry into cells for Marburg Virus
Settings: Marburg virus pseudotyped entry inhibition, cell reporter; activity change, negative = inhibition: at 37.8 µM (top of the series) unless noted
% is scaled to controls: 0 for no effect and ±100 for the full control effect; potency is read from the fitted curve at half-maximal effect.

Q: For `COc1ccc(C(=O)Oc2ccc(/C=N/O)cc2)cc1`, which Potency is on record?
A: inactive

Q: For `Cc1ccc(NC(=O)CCCSc2ccccc2)cc1S(=O)(=O)N1CCOCC1`, which Potency is on record?
A: inconclusive: 22.4 µM [inhibitor, single point]

Q: With `c1ccc(-c2csc3nnc(SCc4ccc5c(c4)OCCO5)n23)cc1` as the compound, how does the Potency read?
A: inconclusive: 20 µM [inhibitor, partial curve, poor fit]

Q: For `Cc1ccc(-c2cc(-c3n[nH]c(=S)o3)c3ccccc3n2)cc1`, which Potency is on record?
A: inconclusive: 29.1 µM [inhibitor, single point]

Q: Which Potency does the source give for `Cc1ccc(-c2nnc(CSc3nnc(COc4cccc5ccccc45)n3-c3ccccc3)o2)cc1` here?
A: inconclusive: 35.5 µM [inhibitor, single point]

Q: Which Potency does the source give for `CCC(CC)c1nnc(NC(=O)COc2ccc3c(c2)OCO3)s1` here?
A: inconclusive: 8.91 µM [inhibitor, partial curve, poor fit]

Q: For `CC1CN(Cc2ccccc2)C(=O)NC1=O` (centres undefined), which Potency is on record?
A: inconclusive: 10 µM [activator, single point]

Q: Which Potency does the source give for `CC1CN(C(=O)CSc2nnc3c(Cl)cc(Cl)cn23)CC(C)O1` (centres undefined) here?
A: inconclusive: 3.98 µM [activator, partial curve, poor fit]

Q: With `O=C(NCc1ccccc1Br)c1ccc2c(c1)OCCO2` as the compound, how does the Potency read?
A: inactive

Q: Which Potency does the source give for `O=C(/C=C/c1cccc([N+](=O)[O-])c1)NCCSCc1ccc(Cl)cc1Cl` here?
A: inconclusive: 35.5 µM [inhibitor, partial curve, poor fit]

Q: With `Cc1ccc(C)c(C(=O)c2c(C)nc3sccn23)c1` as the compound, how does the Potency read?
A: inconclusive: 12.6 µM [inhibitor, single point]

Q: With `COc1ccc(C(C)=O)cc1CSc1nc2ccccc2o1` as the compound, how does the Potency read?
A: inactive

Q: For `Cn1c(=O)c2c(nc(CN3CCC(C(N)=O)CC3)n2Cc2c(F)cccc2Cl)n(C)c1=O`, which Potency is on record?
A: inconclusive: 3.55 µM [inhibitor, partial curve, poor fit]

Q: Which Potency does the source give for `Cc1c(C)n(C)c2ccc(C(=O)NCCCN3CCOCC3)cc12` here?
A: inactive

Q: With `Nc1c2c(nc3ccccc13)CCC2` as the compound, how does the Potency read?
A: inconclusive: 35.5 µM [inhibitor, single point]

Q: Which Potency does the source give for `COc1cc(NC(=O)c2ccc3c(=O)n(Cc4ccco4)c(=S)[nH]c3c2)cc(OC)c1OC` here?
A: inconclusive: 35.5 µM [inhibitor, single point]

Q: Which Potency does the source give for `Cc1nn(-c2ccccc2)c(C)c1/C=N/NC(=O)CSc1nnc(-c2ccccc2)n1-c1ccc(Cl)cc1` here?
A: inconclusive: 14.1 µM [inhibitor, partial curve, poor fit]

Q: Which Potency does the source give for `Cc1ccc(NC(=O)CN2CCN(S(=O)(=O)c3cccs3)CC2)cc1S(=O)(=O)N(C)C` here?
A: inconclusive: 3.16 µM [activator, single point]

Q: Which Potency does the source give for `N#Cc1cc2c(nc1SCC(=O)Nc1ccc(Cl)c(C(F)(F)F)c1)C1CCN2CC1` here?
A: inconclusive: 4.47 µM [inhibitor, partial curve, poor fit]

Q: For `CCN(CC)CCN1C(=O)C(=O)/C(=C(/O)c2ccc(OC)cc2)[C@@H]1c1ccco1`, which Potency is on record?
A: inconclusive: 35.5 µM [activator, single point]

Q: With `COc1ccc(NC(=O)c2cccc(NC(=O)c3ccccc3)c2)c(OC)c1` as the compound, how does the Potency read?
A: inconclusive: 10 µM [inhibitor, partial curve, poor fit]

Q: With `CCOC(=O)CCC(=O)NCc1ccc2c(c1)cc(C)n2C` as the compound, how does the Potency read?
A: inconclusive: 29.1 µM [activator, single point]

Q: Which Potency does the source give for `Cc1sc(Cc2nc(O)cs2)nc1-c1ccccc1` here?
A: inconclusive: 6.31 µM [inhibitor, single point]

Q: For `Cc1ccc2nc(-c3ccccn3)c(NC3CCCC3)n2c1`, which Potency is on record?
A: inconclusive: 35.5 µM [inhibitor, single point]

Q: With `O=C(O)c1ccc(Nc2nc(-c3cccnc3)cs2)cc1` as the compound, how does the Potency read?
A: inconclusive: 35.5 µM [inhibitor, single point]

Q: With `Cc1cc(OCC(=O)Nc2cccc(S(=O)(=O)N3CCCC3)c2)ccc1Cl` as the compound, how does the Potency read?
A: active: 5.01 µM

Q: With `Cn1c(=O)c2[nH]c(C3CC3)nc2n(C)c1=O` as the compound, how does the Potency read?
A: inactive

Q: With `COc1ccc(-c2csc(/C(C#N)=C\c3ccc(O)c([N+](=O)[O-])c3)n2)cc1OC` as the compound, how does the Potency read?
A: inactive

Q: With `CC1(C)C(=O)Nc2ccccc2N1C(=O)COC(=O)c1cccs1` as the compound, how does the Potency read?
A: inconclusive: 3.16 µM [inhibitor, partial curve]

Q: For `Cc1ccc(NC(=S)NCCc2ccc(F)cc2)c(C)c1`, which activity change, negative = inhibition is on record?
A: inconclusive: 39.5% [activator]

Q: For `Cn1nc(C(F)(F)F)c(/C=N/OC(=O)c2ccccc2)c1SCc1ccccc1Cl`, which Potency is on record?
A: inconclusive: 0.231 µM [inhibitor, full curve, poor fit]

Q: For `Cc1ccccc1OCCn1cnc2cc([N+](=O)[O-])ccc2c1=O`, which Potency is on record?
A: inconclusive: 10 µM [inhibitor, partial curve, poor fit]

Q: Which Potency does the source give for `COC(=O)Cc1c(C)c2ccc(OC(=O)c3ccco3)cc2oc1=O` here?
A: inactive

Q: Which Potency does the source give for `COc1ccc(C(=O)CN(C(=O)c2ccc(Cl)cc2)N2C(=O)c3ccccc3C2=O)cc1` here?
A: inconclusive: 3.66 µM [inhibitor, single point]

Q: For `O=C(Cn1cncn1)c1ccccc1Br`, which Potency is on record?
A: inactive

Q: Which Potency does the source give for `COc1cc(C(=O)Nc2nc3ccccc3[nH]2)cc(OC)c1OC` here?
A: inactive

Q: Which Potency does the source give for `Cc1ccc(NC(=O)CSc2nc3sc(C)cc3c(=O)n2C)cc1` here?
A: inactive

Q: For `O=[N+]([O-])c1ccc(-c2cc(-c3ccc(Cl)cc3)n[nH]2)cc1`, which Potency is on record?
A: inconclusive: 0.631 µM [activator, partial curve, poor fit]

Q: With `CCCCNC(=S)Nc1cc(S(=O)(=O)N2CCCCC2)ccc1C` as the compound, how does the Potency read?
A: inconclusive: 35.5 µM [inhibitor, single point]

Q: For `Cc1noc(C)c1COc1cccc(C(=O)Nc2ccc(C#N)cc2)c1`, which Potency is on record?
A: inconclusive: 16.4 µM [inhibitor, partial curve, poor fit]

Q: With `O=C(COC(=O)Cc1c[nH]c2ccccc12)Nc1ccccc1` as the compound, how does the Potency read?
A: inactive

Q: Which Potency does the source give for `COc1cc2c(cc1OC)C(CCc1ccccc1)=NCC2` here?
A: inconclusive: 12.6 µM [inhibitor, partial curve]

Q: Which Potency does the source give for `O=C(CCSc1ccc(Cl)cc1)c1cccs1` here?
A: inactive

Q: With `O=C(Nc1ccccn1)NC1CCCCC1` as the compound, how does the Potency read?
A: inconclusive: 0.316 µM [inhibitor, partial curve, poor fit]
